Article PMC11806102
No constants are given. Whether binding was seen depends on the method and setting. In cells and extracts the contact can be indirect. Some results given as binding are weak or reduced against the parent protein; the word gives no strength.

Amino acid sequences for entries named in this document (tags omitted). Residues count along the entry.
UniProt P08581, residues 25-1390: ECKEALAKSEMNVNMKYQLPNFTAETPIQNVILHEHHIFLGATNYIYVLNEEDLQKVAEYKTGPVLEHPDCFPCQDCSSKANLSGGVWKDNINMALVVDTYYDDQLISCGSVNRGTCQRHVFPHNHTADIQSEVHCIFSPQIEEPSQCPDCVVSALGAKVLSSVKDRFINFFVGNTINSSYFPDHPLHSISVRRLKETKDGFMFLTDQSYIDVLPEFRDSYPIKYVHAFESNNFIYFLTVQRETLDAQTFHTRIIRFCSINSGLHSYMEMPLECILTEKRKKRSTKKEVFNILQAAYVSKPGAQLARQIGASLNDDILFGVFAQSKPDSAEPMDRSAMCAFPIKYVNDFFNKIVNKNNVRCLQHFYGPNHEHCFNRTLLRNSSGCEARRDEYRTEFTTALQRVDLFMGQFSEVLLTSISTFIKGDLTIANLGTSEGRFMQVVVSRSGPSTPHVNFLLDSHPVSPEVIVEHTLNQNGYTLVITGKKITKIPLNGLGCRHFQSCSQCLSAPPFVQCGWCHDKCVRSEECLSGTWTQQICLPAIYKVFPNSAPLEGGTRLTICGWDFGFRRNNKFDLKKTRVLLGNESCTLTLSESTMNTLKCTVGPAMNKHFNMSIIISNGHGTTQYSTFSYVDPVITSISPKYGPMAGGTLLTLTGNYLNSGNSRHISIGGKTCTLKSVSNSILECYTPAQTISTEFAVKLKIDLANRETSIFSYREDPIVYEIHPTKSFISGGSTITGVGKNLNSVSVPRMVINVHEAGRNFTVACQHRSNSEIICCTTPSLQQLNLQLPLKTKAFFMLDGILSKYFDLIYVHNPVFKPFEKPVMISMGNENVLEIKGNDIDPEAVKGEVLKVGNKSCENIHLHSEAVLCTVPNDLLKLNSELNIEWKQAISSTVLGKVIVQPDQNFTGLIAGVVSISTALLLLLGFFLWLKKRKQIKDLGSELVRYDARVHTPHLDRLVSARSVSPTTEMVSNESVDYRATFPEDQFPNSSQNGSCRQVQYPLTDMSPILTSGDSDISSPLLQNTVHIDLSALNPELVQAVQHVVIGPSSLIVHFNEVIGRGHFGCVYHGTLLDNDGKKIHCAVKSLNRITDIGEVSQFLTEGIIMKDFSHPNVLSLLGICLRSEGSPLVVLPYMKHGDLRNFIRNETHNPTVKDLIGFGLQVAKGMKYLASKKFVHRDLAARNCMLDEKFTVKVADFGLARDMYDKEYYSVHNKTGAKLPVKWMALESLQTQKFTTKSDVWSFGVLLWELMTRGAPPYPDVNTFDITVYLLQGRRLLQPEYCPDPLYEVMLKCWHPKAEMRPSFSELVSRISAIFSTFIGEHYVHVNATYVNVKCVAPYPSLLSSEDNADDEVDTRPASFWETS
UniProt P14210, residues 32-728: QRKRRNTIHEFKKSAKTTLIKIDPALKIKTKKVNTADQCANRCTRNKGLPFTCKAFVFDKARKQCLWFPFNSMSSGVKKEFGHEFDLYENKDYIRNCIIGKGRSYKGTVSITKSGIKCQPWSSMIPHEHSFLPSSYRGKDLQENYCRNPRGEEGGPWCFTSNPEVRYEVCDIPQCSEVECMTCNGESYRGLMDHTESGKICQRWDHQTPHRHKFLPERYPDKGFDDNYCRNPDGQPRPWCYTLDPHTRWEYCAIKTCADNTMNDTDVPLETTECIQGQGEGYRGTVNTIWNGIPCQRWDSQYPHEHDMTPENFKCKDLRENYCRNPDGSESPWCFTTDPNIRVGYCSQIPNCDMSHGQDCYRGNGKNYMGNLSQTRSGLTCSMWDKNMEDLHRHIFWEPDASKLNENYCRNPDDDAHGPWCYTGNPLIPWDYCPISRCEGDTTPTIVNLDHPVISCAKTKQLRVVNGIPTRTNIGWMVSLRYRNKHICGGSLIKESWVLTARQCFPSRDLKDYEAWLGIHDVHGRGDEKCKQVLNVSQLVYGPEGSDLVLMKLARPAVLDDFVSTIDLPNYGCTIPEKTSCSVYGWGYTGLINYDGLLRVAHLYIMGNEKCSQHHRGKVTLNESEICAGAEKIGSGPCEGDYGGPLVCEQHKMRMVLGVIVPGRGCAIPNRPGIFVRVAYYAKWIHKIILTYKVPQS

Target: c-MET (human (endogenous in MDA-MB-361)) (UniProt P08581)
Test: co-IP; whole-cell lysates of MDA-MB-361 cells; 5 ug primary or anti-IgG antibody overnight at 4 C; protein G Dynabeads; washed three times with 150 mM NaCl, 20 mM Tris pH 8.0, 1% NP-40; SDS-PAGE immunoblotting

| binding | Molecule |
| --- | --- |
| binds | hepatocyte growth factor (from UniProt P14210 32-728) (ligand) |
| no binding | Trefoil factor 3 (protein, UniProt Q07654 22-80) EEYVGLSANQCAVPAKDRVDCGYPHVTPKECNNRGCCFDSRIPGVPWCFKPLQEAECTF |
